Library screening results

Results are given as percent effect. How 0% and 100% were set is not recorded. Most values in the screen are low, and negative values occur. This is an unselected part of the compounds tested. Two or more numbers in one place are separate tests of the same structure; such repeats can differ widely.

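Viability assay of Plasmodium falciparum sporozoites; the read-out is not stated. The concentration is filed as 10 mM, unlikely as a test dose, so the dose is not known. Higher reads as lower viability (inferred: compounds with an IC50 in retests scored well above the rest). Strong results were mostly tested again. Of about 34,000 compounds tested this way, about 280 (0.84%) reached 50% or more in at least one test.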

SMILES: O=C(Cn1ccc2c(Cl)cccc21)N[C@@H](C(=O)O)c1ccccc1
effect: -1.316

SMILES: OC1(Cn2ccc3ncccc32)CCN(Cc2cccs2)CC1
effect: -8.309

SMILES: O=C(NCCO)c1sc2ncccc2c1C1CN(C2CCCC2)CCO1 (centres unmarked)
effect: -6.91

SMILES: Cc1nc(CN2CCCC(Cn3cc(CCO)nn3)C2)c[nH]1 (centres unmarked)
effect: 3.882

SMILES: CN(C)c1ccc(CNC(=O)NCCc2cccs2)cn1
effect: 1.459

SMILES: [H][C@@]12C[C@@H](Oc3cccnc3)CN1CCN(C(=O)c1ccnnc1)C2
effect: -14.73

SMILES: Cc1ccc(CC2COCCN(S(=O)(=O)c3ccccc3)C2)nc1 (centres unmarked)
effect: 2.477

SMILES: CN(Cc1ccc2c(c1)OCCO2)C(=O)Cn1ccccc1=O
effect: -8.824

SMILES: O=C(O)c1cc(S(=O)(=O)N2CCOc3ccccc32)ccc1F
effect: 11.59

SMILES: COc1ccc(CCCC(=O)N2C[C@H](C3CC3)[C@@H](N(C)C)C2)cc1
effect: -16.77

SMILES: CN1CCN(c2cc(CNC(=O)c3cccnc3O)ccn2)CC1
effect: 6.66

SMILES: c1ccc(-c2noc(CCCN3CCCC3Cn3cccn3)n2)cc1 (centres unmarked)
effect: 29.4 & 6.89 & 21.53

SMILES: Cc1nc(CN2CCCN(CCOc3ccc(C#N)cc3)CC2)no1
effect: 3.321

SMILES: Cc1nc(N2CCCC2)nc2c1CN(C(=O)N1CCOCC1)CC2
effect: -6.239

SMILES: CC(C)c1ncc2c(n1)CN(Cc1nc(-c3ccsc3)no1)CC2
effect: 18.76

SMILES: c1cncc(OCC2CN(Cc3ccco3)Cc3nccn3C2)c1 (centres unmarked)
effect: -4.958

SMILES: Cl.Clc1ccccc1OCCc1cc(C2CCNC2)n[nH]1 (centres unmarked)
effect: 2.56 & 17.2 & 8.308

SMILES: Cc1cc(CNC(=O)Cc2c(C)nc3cc(=O)[nH]n3c2C)no1
effect: -3.591

SMILES: Cc1cnn(CC2CCCN2Cc2nc(C)c3ccccc3n2)c1 (centres unmarked)
effect: 40.35 & 35.48 & 34.48

SMILES: O=C(O)C(F)(F)F.[H][C@@]12C[C@@H](c3nc(C)no3)CN(Cc3sccc3C)[C@]1([H])CCO2
effect: 6.566

SMILES: c1ncn(CC2CN(CC3CCCC3)CCO2)n1 (centres unmarked)
effect: -5.728

SMILES: CC(=O)NC(CC(=O)Nc1ccc(C)cn1)c1ccccc1 (centres unmarked)
effect: 3.211

SMILES: O=C(Nc1ccc(CCN2CCC(O)CC2)cc1)C1CCCCC1
effect: 4.915

SMILES: CCC(=O)N(C)Cc1cccc(OC(C)C)c1
effect: -3.403

SMILES: COc1ccc(OCCN2CCCN(Cc3noc(C)n3)CC2)cc1
effect: -4.758

SMILES: O=C(C1CCOCC1)N1CCc2onc(COc3cccnc3)c2C1.O=C(O)C(F)(F)F
effect: 4.038

SMILES: O=C(c1cn(-c2ccc(F)cc2)nn1)N1CCCC(n2cccn2)C1 (centres unmarked)
effect: -0.5402

SMILES: Cc1occc1C(=O)N1CCC2(CCN(C(=O)c3cccnc3)C2)CC1.O=C(O)C(F)(F)F
effect: 9.157

SMILES: Cc1csc(CNC(=O)N(C)Cc2ccncc2)n1
effect: -5.987

SMILES: Cc1ccc(NS(=O)(=O)c2c[nH]c3ncccc23)nc1
effect: 4.71

SMILES: O=C(NCCN1CCCCCC1=O)c1ccn(-c2ccc(F)cc2)n1
effect: 4.16

SMILES: Cc1cc(C[C@@H]2COC[C@@H]2NC(=O)Cn2c(=O)oc3ccccc32)on1
effect: -4.604

SMILES: COCC(=O)N1CCN(CC2CC2)c2ncccc2C1
effect: -8.42

SMILES: CN(C)c1ncc(CNS(=O)(=O)c2cccc3ccccc23)n1C
effect: -5.598

SMILES: OC(CN1CCC(c2ccn[nH]2)CC1)c1ccc(F)cc1F (centres unmarked)
effect: 1.366

SMILES: CC(C)CC(=O)N1CCc2nc(N3CCOCC3)nc(NC(C)C)c2C1
effect: -17.42

SMILES: Cc1ccc(CN2CCC3(CC2)CC(N2CCN(C)CC2)CO3)s1.O=C(O)C(F)(F)F.O=C(O)C(F)(F)F.O=C(O)C(F)(F)F (centres unmarked)
effect: -6.959

SMILES: CC(=O)NCC(=O)N1CCC2(CC1)CN(c1cccnc1)C(=O)CO2
effect: -2.971

SMILES: N#CCCN(C(=O)CN1CCCC1c1ccsc1)c1ccccc1F (centres unmarked)
effect: -3.926

SMILES: CC(C)N(C)Cc1cnc2n1CCN(CCc1ccccc1)C2.O=C(O)C(F)(F)F.O=C(O)C(F)(F)F
effect: -14.88

SMILES: O=C(O)C(F)(F)F.[H][C@@]12COC[C@]1(COCC(=O)N(C)C)CN(Cc1ccco1)C2
effect: 16.05

SMILES: CCOCC(=O)N1Cc2cnc(-c3ccccc3)nc2C1
effect: -11.53

SMILES: O=C(O)C(F)(F)F.[H][C@@]12OCCN(C(=O)c3occc3C)[C@@]1([H])CC[C@H]2OCCN(C)C
effect: 2.489

SMILES: CCOC(=O)c1ccc(CNC(=O)c2ccc(C)nc2)o1
effect: -13.03

SMILES: CCc1nnc(CN2CCCC2Cn2cc(C)cn2)o1 (centres unmarked)
effect: 11.73

SMILES: Cc1noc(C)c1CN1CCN(C(=O)Cn2cncn2)CC1
effect: -8.535

SMILES: CC1CN(C)c2ccccc2CN1C(=O)CSc1ccncc1 (centres unmarked)
effect: -5.785

SMILES: Cn1cc(CN2CCCC(CCCc3ccccn3)(C(N)=O)C2)cn1 (centres unmarked)
effect: 0.6542

SMILES: CC(=O)N1CCn2c(nnc2C2CCCCN2Cc2ccccc2Cl)C1 (centres unmarked)
effect: 15.49

SMILES: Cc1cc(CN2CCCC(Cn3cncn3)C2)on1 (centres unmarked)
effect: 1.283

SMILES: Cl.O[C@@H]1CN(Cc2cccc(F)c2)CC[C@H]1NCc1ccccn1
effect: 5.826

SMILES: Clc1cccc(Cl)c1CN(CCCN1CCOCC1)Cc1cccnc1
effect: 10.05

SMILES: CC(NCCc1nccn1Cc1ccccc1)c1ccsc1 (centres unmarked)
effect: -12.18

SMILES: [H][C@@]12C[C@@H](c3nnc(C4CC4)o3)O[C@]1([H])CN(CC1CCOCC1)C2
effect: 17.54

SMILES: O=C(O)C(F)(F)F.O=C(O)C(F)(F)F.[H][C@@]12CCCO[C@]1([H])[C@H](Oc1ccccn1)CN2c1nnc(C)s1
effect: -8.908 & -14.58

The last 3 entries again:

SMILES	effect
CC(NCCc1nccn1Cc1ccccc1)c1ccsc1 (centres unmarked)	-12.18
[H][C@@]12C[C@@H](c3nnc(C4CC4)o3)O[C@]1([H])CN(CC1CCOCC1)C2	17.54
O=C(O)C(F)(F)F.O=C(O)C(F)(F)F.[H][C@@]12CCCO[C@]1([H])[C@H](Oc1ccccn1)CN2c1nnc(C)s1	-8.908 & -14.58

Source: ChEMBL document CHEMBL3988442, “University of Dundee, Small-Polar-MMV Screening Library” (2021).